Source: publication PMC7997893
Results are given in words; binding and its absence hold for the method and conditions named. Binding seen in cells or lysates may run through a third protein. Some results given as binding are weak or reduced against the parent protein; the word gives no strength.

Amino acid sequences for entries named in this document (tags omitted).
UniProt Q96EB6: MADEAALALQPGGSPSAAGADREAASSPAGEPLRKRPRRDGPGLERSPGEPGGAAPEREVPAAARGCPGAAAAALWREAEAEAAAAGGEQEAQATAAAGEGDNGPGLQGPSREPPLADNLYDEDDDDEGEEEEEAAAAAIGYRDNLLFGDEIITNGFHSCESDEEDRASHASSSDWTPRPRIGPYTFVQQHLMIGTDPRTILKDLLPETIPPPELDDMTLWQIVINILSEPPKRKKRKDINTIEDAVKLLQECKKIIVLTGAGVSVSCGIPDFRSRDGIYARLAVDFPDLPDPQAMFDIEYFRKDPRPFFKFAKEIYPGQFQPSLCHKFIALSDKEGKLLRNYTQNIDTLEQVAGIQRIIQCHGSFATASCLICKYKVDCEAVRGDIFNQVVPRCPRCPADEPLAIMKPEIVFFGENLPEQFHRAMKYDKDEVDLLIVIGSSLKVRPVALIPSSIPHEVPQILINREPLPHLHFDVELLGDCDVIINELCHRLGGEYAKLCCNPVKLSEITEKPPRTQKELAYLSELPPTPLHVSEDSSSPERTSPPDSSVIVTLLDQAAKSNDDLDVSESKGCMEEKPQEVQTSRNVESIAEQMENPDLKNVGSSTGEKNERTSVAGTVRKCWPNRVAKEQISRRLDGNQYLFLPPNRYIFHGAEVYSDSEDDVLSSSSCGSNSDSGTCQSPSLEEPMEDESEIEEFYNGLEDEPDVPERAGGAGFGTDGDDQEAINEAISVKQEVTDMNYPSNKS

Columns and labels:
[1] = molecular target: Sirtuin 1 (Sirt1), endogenous in HepG2 cells (human (endogenous in HepG2)) (UniProt Q96EB6); assay: co-IP; endogenous proteins in extracts of HepG2 or AML12 cells (lysis buffer 50 mM Tris pH 8.0, 5 mM NaCl, 0.5% NP-40); immunoprecipitated overnight at 4 °C with polyclonal anti-Grail or anti-Sirt1 (rabbit IgG as control), Dynabeads Protein G, washed with SNNTE buffer (0.5 M NaCl, 1% NP-40); immunoblot with anti-Grail and anti-Sirt1
[2] = molecular target: T1, Sirtuin 1 (Sirt1), endogenous in AML12 cells (mouse (endogenous in AML12)) (UniProt Q923E4); assay: as above
T1 sequence: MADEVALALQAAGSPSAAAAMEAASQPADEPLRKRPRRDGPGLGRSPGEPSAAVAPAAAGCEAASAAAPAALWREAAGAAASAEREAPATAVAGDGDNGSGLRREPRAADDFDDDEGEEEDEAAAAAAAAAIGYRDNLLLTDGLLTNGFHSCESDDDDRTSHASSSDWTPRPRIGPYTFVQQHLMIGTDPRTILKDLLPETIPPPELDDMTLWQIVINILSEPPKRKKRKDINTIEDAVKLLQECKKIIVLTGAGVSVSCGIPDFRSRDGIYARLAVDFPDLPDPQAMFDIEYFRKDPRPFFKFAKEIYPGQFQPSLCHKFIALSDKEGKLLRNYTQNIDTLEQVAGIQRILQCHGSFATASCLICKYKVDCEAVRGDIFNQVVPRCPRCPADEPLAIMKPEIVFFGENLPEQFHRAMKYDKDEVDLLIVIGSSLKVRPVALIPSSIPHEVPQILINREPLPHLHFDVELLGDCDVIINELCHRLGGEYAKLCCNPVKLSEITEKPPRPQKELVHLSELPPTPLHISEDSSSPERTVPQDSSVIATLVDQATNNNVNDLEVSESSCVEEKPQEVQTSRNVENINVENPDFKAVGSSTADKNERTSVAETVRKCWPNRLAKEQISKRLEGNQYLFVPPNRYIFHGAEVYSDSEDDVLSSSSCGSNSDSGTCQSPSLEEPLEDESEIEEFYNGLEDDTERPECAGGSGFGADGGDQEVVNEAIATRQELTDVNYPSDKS

B1: Gene related to anergy in lymphocytes (Grail), endogenous in HepG2 cells (enzyme, UniProt Q8TEB7 39-428)
chain: AEAVWTAYLNVSWRVPHTGVNRTVWELSEEGVYGQDSPLEPVAGVLVPPDGPGALNACNPHTNFTVPTVWGSTVQVSWLALIQRGGGCTFADKIHLAYERGASGAVIFNFPGTRNEVIPMSHPGAVDIVAIMIGNLKGTKILQSIQRGIQVTMVIEVGKKHGPWVNHYSIFFVSVSFFIITAATVGYFIFYSARRLRNARAQSRKQRQLKADAKKAIGRLQLRTLKQGDKEIGPDGDSCAVCIELYKPNDLVRILTCNHIFHKTCVDPWLLEHRTCPMCKCDILKALGIEVDVEDGSVSLQVPVSNEISNSASSHEEDNRSETASSGYASVQGTDEPPLEEHVQSTNESLQLVNHEANSVAVDVIPHVDNPTFEEDETPNQETAVREIKS
- binding [1]: binds

B2: Gene related to anergy in lymphocytes (Grail), endogenous in AML12 cells (enzyme, UniProt Q9D304 39-428)
chain: AEAVWTAYLNVSWRVPHTGVNRTVWELSEEGVYGQDSPLEPVSGVLVPPDGPGALNACNPHTNFTVPTVWGSTVQVSWLALIQRGGGCTFADKIHLASERGASGAVIFNFPGTRNEVIPMSHPGAGDIVAIMIGNLKGTKILQSIQRGIQVTMVIEVGKKHGPWVNHYSIFFVSVSFFIITAATVGYFIFYSARRLRNARAQSRKQRQLKADAKKAIGKLQLRTLKQGDKEIGPDGDSCAVCIELYKPNDLVRILTCNHIFHKTCVDPWLLEHRTCPMCKCDILKALGIEVDVEDGSVSLQVPVSNEASNTASPHEEDSRSETASSGYASVQGADEPPLEEHAQSANENLQLVNHEANSVAVDVVPHVDNPTFEEDETPDQEAAVREIKS
- binding [2]: binds
